Here are results for 4 molecules from paper PMC12561182, “Gal3‐CaN‐Smurf1 Complex Sequestrates FLCN‐FNIPs to Facilitate TFEB Activation in Response to Endomembrane Damage” (Advanced Science, 2025).

These are yes or no findings as the source states them, for the method shown. Binding seen in cells or lysates may run through a third protein. Binding calls can cover weak binding; strength is not graded here. Sequences can lack the tags named with a protein.

One assay has as its target T1, HA-FLCN (UniProt Q8NFG4).
T1 sequence: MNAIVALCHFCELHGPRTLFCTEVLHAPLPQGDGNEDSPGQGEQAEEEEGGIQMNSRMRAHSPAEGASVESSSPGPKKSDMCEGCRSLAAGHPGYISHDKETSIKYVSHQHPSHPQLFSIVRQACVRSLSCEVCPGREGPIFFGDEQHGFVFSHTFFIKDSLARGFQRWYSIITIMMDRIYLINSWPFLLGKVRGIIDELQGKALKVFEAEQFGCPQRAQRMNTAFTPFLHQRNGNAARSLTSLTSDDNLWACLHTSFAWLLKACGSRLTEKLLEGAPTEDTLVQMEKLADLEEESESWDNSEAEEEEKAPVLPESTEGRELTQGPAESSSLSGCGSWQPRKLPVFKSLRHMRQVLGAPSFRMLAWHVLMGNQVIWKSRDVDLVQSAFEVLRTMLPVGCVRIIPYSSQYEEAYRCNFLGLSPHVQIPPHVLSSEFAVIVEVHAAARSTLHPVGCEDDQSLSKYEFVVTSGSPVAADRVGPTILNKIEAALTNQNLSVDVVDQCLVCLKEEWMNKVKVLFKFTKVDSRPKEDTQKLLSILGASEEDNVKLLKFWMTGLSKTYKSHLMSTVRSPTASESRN
Kind of assay: co-IP; both partners in HEK293 cells (transfected tagged constructs and/or endogenous proteins); lysis in 50 mM Tris-HCl pH 8.0, 150 mM NaCl, 1% NP40, 0.5% sodium deoxycholate; beads at 4 °C overnight, washed with PBS; in some panels cells treated with LLOMe (1 mM, 2 h) or DMSO, or with siRNA or overexpression of a third protein.

In assay [1] the target is T2, HA-FNIP2 (UniProt Q9P278).
T2 sequence: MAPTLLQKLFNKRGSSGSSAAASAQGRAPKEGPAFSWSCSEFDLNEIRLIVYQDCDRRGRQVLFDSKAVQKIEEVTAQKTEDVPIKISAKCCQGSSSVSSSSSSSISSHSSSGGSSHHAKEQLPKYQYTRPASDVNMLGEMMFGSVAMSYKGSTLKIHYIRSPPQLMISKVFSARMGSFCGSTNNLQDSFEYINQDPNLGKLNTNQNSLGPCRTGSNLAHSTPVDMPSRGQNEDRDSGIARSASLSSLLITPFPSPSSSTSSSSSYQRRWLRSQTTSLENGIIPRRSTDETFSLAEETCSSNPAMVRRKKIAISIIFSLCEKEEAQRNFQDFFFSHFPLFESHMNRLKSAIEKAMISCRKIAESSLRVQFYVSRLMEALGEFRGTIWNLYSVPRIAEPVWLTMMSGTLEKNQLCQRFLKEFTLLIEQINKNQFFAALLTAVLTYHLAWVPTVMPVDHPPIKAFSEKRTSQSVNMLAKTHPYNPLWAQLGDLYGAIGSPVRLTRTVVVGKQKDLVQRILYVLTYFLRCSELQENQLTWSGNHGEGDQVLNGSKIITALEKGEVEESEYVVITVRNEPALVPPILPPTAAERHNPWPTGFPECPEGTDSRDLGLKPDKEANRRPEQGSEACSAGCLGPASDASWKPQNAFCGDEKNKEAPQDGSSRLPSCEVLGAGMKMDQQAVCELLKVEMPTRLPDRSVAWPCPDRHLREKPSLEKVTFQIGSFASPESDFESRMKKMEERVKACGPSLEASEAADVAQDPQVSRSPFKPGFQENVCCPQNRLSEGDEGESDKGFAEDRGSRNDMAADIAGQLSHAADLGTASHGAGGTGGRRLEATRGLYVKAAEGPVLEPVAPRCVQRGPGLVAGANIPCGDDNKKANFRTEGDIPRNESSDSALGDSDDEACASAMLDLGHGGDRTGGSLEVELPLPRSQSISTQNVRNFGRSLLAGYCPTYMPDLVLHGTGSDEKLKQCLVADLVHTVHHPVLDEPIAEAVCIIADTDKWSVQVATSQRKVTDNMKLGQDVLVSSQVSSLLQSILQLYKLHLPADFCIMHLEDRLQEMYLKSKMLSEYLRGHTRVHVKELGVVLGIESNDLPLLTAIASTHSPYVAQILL
The assay is described as above.

A further assay deals with T3, HA-FNIP2-K466R (UniProt Q9P278).
T3 sequence: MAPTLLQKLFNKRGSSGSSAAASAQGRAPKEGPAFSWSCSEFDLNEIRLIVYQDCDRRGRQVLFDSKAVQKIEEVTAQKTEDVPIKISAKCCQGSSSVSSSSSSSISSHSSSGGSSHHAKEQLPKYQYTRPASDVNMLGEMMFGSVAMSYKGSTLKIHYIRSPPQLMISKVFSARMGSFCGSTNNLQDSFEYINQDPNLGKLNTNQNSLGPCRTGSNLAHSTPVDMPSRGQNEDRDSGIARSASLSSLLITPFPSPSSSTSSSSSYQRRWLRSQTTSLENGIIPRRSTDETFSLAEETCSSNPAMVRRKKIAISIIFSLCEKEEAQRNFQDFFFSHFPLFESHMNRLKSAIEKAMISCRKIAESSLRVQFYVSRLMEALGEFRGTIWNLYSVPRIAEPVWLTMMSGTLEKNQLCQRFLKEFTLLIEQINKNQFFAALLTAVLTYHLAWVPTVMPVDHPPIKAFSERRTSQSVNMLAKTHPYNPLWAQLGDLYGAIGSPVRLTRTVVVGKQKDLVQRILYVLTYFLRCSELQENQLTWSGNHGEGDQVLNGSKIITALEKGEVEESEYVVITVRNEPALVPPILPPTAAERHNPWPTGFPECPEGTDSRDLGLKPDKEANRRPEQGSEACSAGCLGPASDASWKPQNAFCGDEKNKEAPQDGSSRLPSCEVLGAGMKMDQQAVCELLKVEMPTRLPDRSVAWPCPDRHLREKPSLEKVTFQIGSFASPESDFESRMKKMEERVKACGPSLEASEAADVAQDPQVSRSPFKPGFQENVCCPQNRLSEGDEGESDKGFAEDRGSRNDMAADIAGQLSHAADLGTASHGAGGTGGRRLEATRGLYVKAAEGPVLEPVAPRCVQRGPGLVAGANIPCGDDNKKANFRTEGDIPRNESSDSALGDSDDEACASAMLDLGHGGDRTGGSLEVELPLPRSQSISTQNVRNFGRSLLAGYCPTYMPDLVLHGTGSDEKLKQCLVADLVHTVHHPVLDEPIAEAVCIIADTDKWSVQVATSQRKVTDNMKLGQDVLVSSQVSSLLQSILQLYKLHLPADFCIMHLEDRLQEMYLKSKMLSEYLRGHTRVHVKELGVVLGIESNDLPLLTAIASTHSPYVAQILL
The description is as above.

A further assay addresses T4, Flag-FNIP2 (UniProt Q9P278).
T4 sequence: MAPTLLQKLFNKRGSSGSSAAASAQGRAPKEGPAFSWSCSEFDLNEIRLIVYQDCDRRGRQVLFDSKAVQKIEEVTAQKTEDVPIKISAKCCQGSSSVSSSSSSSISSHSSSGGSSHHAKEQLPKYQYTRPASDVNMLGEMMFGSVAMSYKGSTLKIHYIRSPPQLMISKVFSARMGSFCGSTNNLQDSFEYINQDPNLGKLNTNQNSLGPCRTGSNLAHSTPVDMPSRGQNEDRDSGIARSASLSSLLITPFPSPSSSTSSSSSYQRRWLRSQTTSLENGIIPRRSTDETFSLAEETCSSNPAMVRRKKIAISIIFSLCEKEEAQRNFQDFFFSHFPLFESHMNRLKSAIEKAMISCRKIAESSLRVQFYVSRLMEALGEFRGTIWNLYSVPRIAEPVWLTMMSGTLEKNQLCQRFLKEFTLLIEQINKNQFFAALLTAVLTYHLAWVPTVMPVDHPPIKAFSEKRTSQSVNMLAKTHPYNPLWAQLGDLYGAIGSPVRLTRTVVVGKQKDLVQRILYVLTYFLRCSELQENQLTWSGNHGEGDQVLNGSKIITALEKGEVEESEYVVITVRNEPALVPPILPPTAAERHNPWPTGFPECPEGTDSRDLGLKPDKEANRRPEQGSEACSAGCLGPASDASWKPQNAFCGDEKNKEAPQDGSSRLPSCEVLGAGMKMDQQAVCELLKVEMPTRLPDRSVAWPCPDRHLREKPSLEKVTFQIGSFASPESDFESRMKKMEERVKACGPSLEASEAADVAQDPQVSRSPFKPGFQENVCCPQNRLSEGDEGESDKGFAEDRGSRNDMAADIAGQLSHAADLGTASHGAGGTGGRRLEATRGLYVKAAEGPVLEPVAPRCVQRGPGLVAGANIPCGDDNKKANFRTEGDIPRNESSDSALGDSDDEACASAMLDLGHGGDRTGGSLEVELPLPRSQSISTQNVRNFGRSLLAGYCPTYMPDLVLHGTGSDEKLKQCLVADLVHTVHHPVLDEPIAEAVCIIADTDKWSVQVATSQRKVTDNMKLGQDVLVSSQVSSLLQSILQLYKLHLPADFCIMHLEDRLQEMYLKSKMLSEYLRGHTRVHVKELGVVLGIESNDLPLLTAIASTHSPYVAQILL
The assay is described as above.

Assay [2] has as its target T2, HA-FNIP2. Kind of assay: co-IP; tagged protein expressed in HEK293 cells (lysate on beads, 4 °C overnight), then incubated with the bacterial-expressed protein purified from E. coli; in some panels cells treated with LLOMe (1 mM, 2 h) or DMSO, or with siRNA or overexpression of a third protein; which side was precipitated is not told for each panel; only the binder purified.

Another assay deals with T5, HA-FNIP2 (1-391) (UniProt Q9P278).
T5 sequence: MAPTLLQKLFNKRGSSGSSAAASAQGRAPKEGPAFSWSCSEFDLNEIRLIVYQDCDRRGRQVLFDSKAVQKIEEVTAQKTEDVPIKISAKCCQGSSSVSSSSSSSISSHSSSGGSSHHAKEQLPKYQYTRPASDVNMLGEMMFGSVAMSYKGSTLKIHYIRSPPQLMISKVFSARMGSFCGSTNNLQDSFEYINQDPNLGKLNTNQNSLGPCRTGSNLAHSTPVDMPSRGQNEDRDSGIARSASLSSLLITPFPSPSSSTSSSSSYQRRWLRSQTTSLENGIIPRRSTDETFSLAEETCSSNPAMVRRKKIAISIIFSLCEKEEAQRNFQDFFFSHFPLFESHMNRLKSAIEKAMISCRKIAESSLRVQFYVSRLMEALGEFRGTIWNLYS
Described as above.

The next assay deals with GST-PPP3CB (22-525). Description: pull-down; GST pull-down: GST fusion purified from E. coli on beads, tagged partner expressed in HEK293 cells; 4 °C overnight, washed with PBS; only the target purified.
For another assay, the target named is GST-PPP3CB (1-66). The description is as above.

For the molecule Flag-FNIP1, the binding result in the assay with HA-FLCN, with HA-FNIP2 [1] and in the assay with HA-FNIP2-K466R was “binds” in each case.

HA-PPP3CB (enzyme): the binding entry with Flag-FNIP2 is on record as “binds”.

For the molecule His-Flag-PPP3CB (enzyme), the binding entry with HA-FNIP2 [2] and with HA-FNIP2 (1-391) was “binds” each time.

B1: HA-FNIP2 (protein, UniProt Q9P278 1-1114)
chain: MAPTLLQKLFNKRGSSGSSAAASAQGRAPKEGPAFSWSCSEFDLNEIRLIVYQDCDRRGRQVLFDSKAVQKIEEVTAQKTEDVPIKISAKCCQGSSSVSSSSSSSISSHSSSGGSSHHAKEQLPKYQYTRPASDVNMLGEMMFGSVAMSYKGSTLKIHYIRSPPQLMISKVFSARMGSFCGSTNNLQDSFEYINQDPNLGKLNTNQNSLGPCRTGSNLAHSTPVDMPSRGQNEDRDSGIARSASLSSLLITPFPSPSSSTSSSSSYQRRWLRSQTTSLENGIIPRRSTDETFSLAEETCSSNPAMVRRKKIAISIIFSLCEKEEAQRNFQDFFFSHFPLFESHMNRLKSAIEKAMISCRKIAESSLRVQFYVSRLMEALGEFRGTIWNLYSVPRIAEPVWLTMMSGTLEKNQLCQRFLKEFTLLIEQINKNQFFAALLTAVLTYHLAWVPTVMPVDHPPIKAFSEKRTSQSVNMLAKTHPYNPLWAQLGDLYGAIGSPVRLTRTVVVGKQKDLVQRILYVLTYFLRCSELQENQLTWSGNHGEGDQVLNGSKIITALEKGEVEESEYVVITVRNEPALVPPILPPTAAERHNPWPTGFPECPEGTDSRDLGLKPDKEANRRPEQGSEACSAGCLGPASDASWKPQNAFCGDEKNKEAPQDGSSRLPSCEVLGAGMKMDQQAVCELLKVEMPTRLPDRSVAWPCPDRHLREKPSLEKVTFQIGSFASPESDFESRMKKMEERVKACGPSLEASEAADVAQDPQVSRSPFKPGFQENVCCPQNRLSEGDEGESDKGFAEDRGSRNDMAADIAGQLSHAADLGTASHGAGGTGGRRLEATRGLYVKAAEGPVLEPVAPRCVQRGPGLVAGANIPCGDDNKKANFRTEGDIPRNESSDSALGDSDDEACASAMLDLGHGGDRTGGSLEVELPLPRSQSISTQNVRNFGRSLLAGYCPTYMPDLVLHGTGSDEKLKQCLVADLVHTVHHPVLDEPIAEAVCIIADTDKWSVQVATSQRKVTDNMKLGQDVLVSSQVSSLLQSILQLYKLHLPADFCIMHLEDRLQEMYLKSKMLSEYLRGHTRVHVKELGVVLGIESNDLPLLTAIASTHSPYVAQILL
On to B1, for which the binding result with GST-PPP3CB (22-525) and with GST-PPP3CB (1-66) was “binds” in each case.
